Measured values as given in paper PMC3349753.
These are yes or no findings as the source states them, for the method shown. Binding seen in cells or lysates may run through a third protein. A result given as binding can be weak or reduced; the word gives no strength. Sequences can lack the tags named with a protein.

Biological target: Flag-tagged LMP1 with deletion of the short N-terminal domain (ΔNT) (Epstein-Barr virus)
Experiment: co-IP; NPC-TW04 cells co-expressing Myc-FGD4 and Flag-tagged full-length, truncated or chimeric LMP1; 1% NP-40 lysates precipitated with anti-Flag M2 agarose overnight at 4°C; blot with anti-Myc and anti-Flag

B1: Myc-tagged full-length FGD4 (FYVE, RhoGEF and PH domain-containing 4) (protein, UniProt Q96M96 1-766)
chain: MEEIKPASASCVSKEKPSKVSDLISRFEGGSSLSNYSDLKKESAVNLNAPRTPGRHGLTTTPQQKLLSQHLPQRQGNDTDKTQGAQTCVANGVMAAQNQMECEEEKAATLSSDTSIQASEPLLDTHIVNGERDETATAPASPTTDSCDGNASDSSYRTPGIGPVLPLEERGAETETKVQERENGESPLELEQLDQHHEMKETNEQKLHKIANELLLTERAYVNRLDLLDQVFYCKLLEEANRGSFPAEMVNKIFSNISSINAFHSKFLLPELEKRMQEWETTPRIGDILQKLAPFLKMYGEYVKGFDNAMELVKNMTERIPQFKSVVEEIQKQKICGSLTLQHHMLEPVQRIPRYEMLLKDYLRKLPPDSLDWNDAKKSLEIISTAASHSNSAIRKMENLKKLLEIYEMLGEEEDIVNPSNELIKEGQILKLAARNTSAQERYLFLFNNMLLYCVPKFSLVGSKFTVRTRVGIDGMKIVETQNEEYPHTFQVSGKERTLELQASSAQDKEEWIKALQETIDAFHQRHETFRNAIAKDNDIHSEVSTAELGKRAPRWIRDNEVTMCMKCKEPFNALTRRRHHCRACGYVVCWKCSDYKAQLEYDGGKLSKVCKDCYQIISGFTDSEEKKRKGILEIESAEVSGNSVVCSFLQYMEKSKPWQKAWCVIPKQDPLVLYMYGAPQDVRAQATIPLLGYVVDEMPRSADLPHSFKLTQSKSVHSFAADSEELKQKWLKVILLAVTGETPGGPNEHPATLDDHPEPKKKSEC
binding: binds
